Test in all cases: pull-down
For assay [1], the target named is SFB-XRCC1 ΔB2D (human) (UniProt P18887).
The target in assay [2] is GST-tagged truncated XRCC1, BRCT I domain (human).
Assay [3] deals with GST-tagged truncated XRCC1, BRCT II domain (human).
A further assay addresses SFB-XRCC1 ΔB1D (human) (UniProt P18887).
Assay [4] addresses SFB-XRCC1 ΔB2D (human) (UniProt P18887). The source holds these as a separate data set.
Assay [5] addresses SFB-tagged truncated XRCC1, BRCT I domain (B1D) (human).
Assay [6] deals with SFB-tagged truncated XRCC1, BRCT II domain (B2D) (human).
The target in assay [7] is SFB-tagged truncated XRCC1, N-terminal domain (NTD) (human).

The chains behind the UniProt entries cited, without tags or fusion partners. Where a name states a change or a piece, a line headed by the entry shows the natural chain unless it says otherwise.
UniProt P18887: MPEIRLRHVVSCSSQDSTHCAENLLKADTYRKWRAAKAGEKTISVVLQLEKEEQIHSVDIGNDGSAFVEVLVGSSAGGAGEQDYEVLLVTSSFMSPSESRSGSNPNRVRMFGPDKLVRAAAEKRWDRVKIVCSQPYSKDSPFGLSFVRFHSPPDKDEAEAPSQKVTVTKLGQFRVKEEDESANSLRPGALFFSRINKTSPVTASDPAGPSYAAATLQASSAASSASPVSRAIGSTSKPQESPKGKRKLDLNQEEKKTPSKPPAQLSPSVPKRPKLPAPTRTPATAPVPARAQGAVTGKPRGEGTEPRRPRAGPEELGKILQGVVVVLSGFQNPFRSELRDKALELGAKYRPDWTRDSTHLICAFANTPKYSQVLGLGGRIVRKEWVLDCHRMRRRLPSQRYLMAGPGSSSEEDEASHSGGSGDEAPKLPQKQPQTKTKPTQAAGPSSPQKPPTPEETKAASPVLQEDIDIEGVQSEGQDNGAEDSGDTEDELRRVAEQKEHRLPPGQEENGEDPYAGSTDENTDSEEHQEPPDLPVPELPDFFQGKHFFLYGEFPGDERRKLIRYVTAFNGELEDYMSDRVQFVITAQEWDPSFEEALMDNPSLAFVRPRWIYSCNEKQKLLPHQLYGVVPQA
UniProt Q92830: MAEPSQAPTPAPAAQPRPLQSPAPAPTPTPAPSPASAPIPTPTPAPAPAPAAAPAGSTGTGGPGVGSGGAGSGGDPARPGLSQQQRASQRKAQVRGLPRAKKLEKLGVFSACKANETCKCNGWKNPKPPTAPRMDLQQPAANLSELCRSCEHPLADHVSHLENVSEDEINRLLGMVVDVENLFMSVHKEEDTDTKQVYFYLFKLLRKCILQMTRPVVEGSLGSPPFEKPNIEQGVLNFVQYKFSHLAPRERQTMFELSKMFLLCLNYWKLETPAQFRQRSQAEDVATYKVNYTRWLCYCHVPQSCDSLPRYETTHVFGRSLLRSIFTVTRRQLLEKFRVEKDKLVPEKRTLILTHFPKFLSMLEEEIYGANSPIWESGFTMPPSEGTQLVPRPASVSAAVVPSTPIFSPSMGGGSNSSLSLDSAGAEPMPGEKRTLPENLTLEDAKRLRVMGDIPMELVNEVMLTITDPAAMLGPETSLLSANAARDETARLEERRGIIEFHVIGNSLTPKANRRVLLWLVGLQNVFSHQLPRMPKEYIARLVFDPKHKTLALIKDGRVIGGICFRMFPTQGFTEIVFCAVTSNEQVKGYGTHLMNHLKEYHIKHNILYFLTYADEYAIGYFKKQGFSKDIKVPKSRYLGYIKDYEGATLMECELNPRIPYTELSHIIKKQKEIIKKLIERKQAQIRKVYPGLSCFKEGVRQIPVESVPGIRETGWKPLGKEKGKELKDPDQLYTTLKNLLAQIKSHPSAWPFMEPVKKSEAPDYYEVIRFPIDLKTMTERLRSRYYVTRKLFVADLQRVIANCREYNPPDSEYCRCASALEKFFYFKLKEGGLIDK

Read-outs that look alike come from different tables or passages of the source. These are yes or no findings as the source states them, for the method shown. In cells and extracts the contact can be indirect. For some assays here: Binding calls can cover weak binding; strength is not graded here.

With “GCN5 (human, endogenous) (from UniProt Q92830 1-837)”, the binding entry with SFB-XRCC1 ΔB2D (human) [1] is reported as “binds”.

B1: TADA2B (human, endogenous) (protein, UniProt Q86TJ2 1-420)
chain: MAELGKKYCVYCLAEVSPLRFRCTECQDIELCPECFSAGAEIGHHRRYHGYQLVDGGRFTLWGPEAEGGWTSREEQLLLDAIEQFGFGNWEDMAAHVGASRTPQEVMEHYVSMYIHGNLGKACIPDTIPNRVTDHTCPSGGPLSPSLTTPLPPLDISVAEQQQLGYMPLRDDYEIEYDQDAETLISGLSVNYDDDDVEIELKRAHVDMYVRKLKERQRRKNIARDYNLVPAFLGKDKKEKEKALKRKITKEEKELRLKLRPLYQFMSCKEFDDLFENMHKEKMLRAKIRELQRYRRNGITKMEESAEYEAARHKREKRKENKNLAGSKRGKEDGKDSEFAAIENLPGFELLSDREKVLCSSLNLSPARYVTVKTIIIKDHLQKRQGIPSKSRLPSYLDKVLKKRILNFLTESGWISRDAS
Regarding B1, the binding result is “binds” in assay [2]; “binds” in assay [3]; “binds” in the assay with SFB-XRCC1 ΔB1D (human); “no binding” with SFB-XRCC1 ΔB2D (human) [4]; “binds” in assay [5]; “binds” in assay [6]. Further, in assay [7], the binding entry is reported as “binds”.

Source of the values: paper doi:10.1101/2025.08.24.672030.
